Measured values from PubChem BioAssay AID288 (DTP/NCI, 2004).
The list does not hold the whole screen: it gathers tests that were run many times, whatever their T/C, doses with no T/C, and many T/C values between a quarter and a half above the control. Further doses and runs are listed elsewhere. T/C is the treated group as % of the vehicle group. Schedule codes are those of the source, read here as Q, the interval in days (D) or hours (H), X, the number of doses. Some entries give survivors of the animals treated and no T/C: the source files T/C as zero there, which appears to mark a toxic dose or a test without result, not a measured value. Some doses without a T/C left all or most animals alive at the check, yet need not have been tolerated: survival well below the control is almost never listed, so the zero probably covers shortened survival too. Survivors were counted at the toxicity check, usually on the fifth day, unless a day is given; later deaths do not show. Some entries were tested several times; the values are given in rising order. For survival time, this PubChem deposit counts one and a half times the control or more as active, and values a quarter to a half above the control carry no call in these data; other NCI protocols may use other cut-offs. Counts like (3×) stand for listed records that agree. Numbered stars: 1 amine (or outer) side, 2 acyl side, 3 side chain; on linkers, the order of the positions; unused ones are H or OH. Bridge positions count the residues as written; N and C are the ends. Square brackets hold non-standard residues; d marks the D form. Peptide text beside a SMILES is read from it. I, II: the chains in the order shown. * marks the point of attachment. ξ: configuration not given here. Quinaldoyl(3-OH,6-OMe) = COc1ccc2nc(C(=O)*)c(O)cc2c1; X2 = CC(=O)OC1CC=NN([*:1])C1C(=O)[*:2]; ξNMeVal(3-OH) = CNC(C(=O)O)C(C)(C)O; X3 = O=C(C1CCCNN1[*:1])[*:2]; Sar = CNCC(=O)O

System: BDF1 mice, M5076 sarcoma s.c., survival/tumor T/C
Experiment: NCI In Vivo Anticancer Drug Screen. Data for tumor model Sarcoma M5076 (subcutaneous) in B6D2F1 (BDF1) mice
Method: The antitumor activity of compounds was measured in mice bearing transplantable tumors. Survival or tumor size were measured and the results are expressed as the measurement made in the treated group (T) divided by the measurement made in the vehicle treated control group (C). The tumor model used in this assay is Sarcoma M5076 (subcutaneous) in B6D2F1 (BDF1) mice

[1] = T/C endpoint: median survival time, dose: 32.0 mg/kg/injection, schedule: Q01DX009 (ip), vehicle: saline with Tween-80, higher T/C = longer survival
[2] = T/C endpoint: median survival time, dose: 64.0 mg/kg/injection, schedule: Q01DX009 (ip), vehicle: saline with Tween-80, higher T/C = longer survival

`CCOC(=O)C(CC(C)C)NC(=O)C(Cc1ccc(N(CCCl)CCCl)cc1)NC(C)=O` (stereo not given) was tested, and the T/C [1] was 129 and 133 % of control, the survivor count [2] was 8 of 10 on day 9 and the survivor count (T/C endpoint: median survival time, dose: 128.0 mg/kg/injection, schedule: Q01DX009 (ip), vehicle: saline with Tween-80, higher T/C = longer survival) was 0 of 10 on day 9.

In the case of `COc1cc(NS(C)(=O)=O)ccc1Nc1c2ccccc2nc2ccccc12`, the survivor count (T/C endpoint: mean tumor weight, dose: 0.94 mg/kg/injection, schedule: Q02DX011 (ip), vehicle: clinical formulation, higher T/C = larger tumour) is reported as 0 of 10 on day 22, the survivor count (T/C endpoint: mean tumor weight, dose: 1.88 mg/kg/injection, schedule: Q02DX011 (ip), vehicle: clinical formulation, higher T/C = larger tumour) is reported as 0 of 10 on day 22 and the survivor count (T/C endpoint: mean tumor weight, dose: 3.75 mg/kg/injection, schedule: Q02DX011 (ip), vehicle: clinical formulation, higher T/C = larger tumour) is reported as 0 of 10 on day 22. The survivor count (T/C endpoint: mean tumor weight, dose: 7.5 mg/kg/injection, schedule: Q02DX011 (ip), vehicle: clinical formulation, higher T/C = larger tumour) was 0 of 10 on day 22, the survivor count (T/C endpoint: median tumor weight (est.), dose: 0.94 mg/kg/injection, schedule: Q02DX011 (ip), vehicle: clinical formulation, higher T/C = larger tumour) was 0 of 10 on day 22 and the survivor count (T/C endpoint: median tumor weight (est.), dose: 1.88 mg/kg/injection, schedule: Q02DX011 (ip), vehicle: clinical formulation, higher T/C = larger tumour) was 0 of 10 on day 22. The survivor count (T/C endpoint: median tumor weight (est.), dose: 3.75 mg/kg/injection, schedule: Q02DX011 (ip), vehicle: clinical formulation, higher T/C = larger tumour) was 0 of 10 on day 22 and the survivor count (T/C endpoint: median tumor weight (est.), dose: 7.5 mg/kg/injection, schedule: Q02DX011 (ip), vehicle: clinical formulation, higher T/C = larger tumour) was 0 of 10 on day 22.

In the case of `Nc1nc([Se])c2ncn(C3OC(CO)C(O)C3O)c2n1` (stereo not given), the T/C (T/C endpoint: median survival time, dose: 32.0 mg/kg/injection, schedule: Q01DX009 (ip), vehicle: saline, higher T/C = longer survival) is reported as 134 % of control, the survivor count (T/C endpoint: median survival time, dose: 32.0 mg/kg/injection, schedule: Q01DX009 (ip), vehicle: suspension in saline, higher T/C = longer survival) is reported as 9 of 10 on day 9 and the survivor count (T/C endpoint: median survival time, dose: 64.0 mg/kg/injection, schedule: Q01DX009 (ip), vehicle: suspension in saline, higher T/C = longer survival) is reported as 3 of 10 on day 9. The survivor count (T/C endpoint: median tumor weight (est.), dose: 32.0 mg/kg/injection, schedule: Q01DX009 (ip), vehicle: suspension in saline, higher T/C = larger tumour) was 3 of 10 on day 20 and the survivor count (T/C endpoint: median tumor weight (est.), dose: 64.0 mg/kg/injection, schedule: Q01DX009 (ip), vehicle: suspension in saline, higher T/C = larger tumour) was 0 of 10 on day 20.

`O=[N+]([O-])c1nccn1CC(O)CO` (stereo not given) was tested, and the T/C (T/C endpoint: median survival time, dose: 1000.0 mg/kg/injection, schedule: Q01DX001 (ip), vehicle: saline, evaluated on day 16, higher T/C = longer survival) was 96 and 109 % of control, the T/C (T/C endpoint: median survival time, dose: 1000.0 mg/kg/injection, schedule: Q01DX001 (ip), vehicle: saline, evaluated on day 43, higher T/C = longer survival) was 96 % of control and the T/C (T/C endpoint: median survival time, dose: 1000.0 mg/kg/injection, schedule: Q01DX001 (ip), vehicle: saline, evaluated on day 49, higher T/C = longer survival) was 76 % of control. For the same molecule, the T/C (T/C endpoint: median survival time, dose: 1000.0 mg/kg/injection, schedule: Q01DX001 (ip), vehicle: saline, evaluated on day 50, higher T/C = longer survival) was 111 % of control.

`Cc1[nH]c(=O)[nH]c(=O)c1N(CCF)CCCl` was tested, and the T/C (T/C endpoint: median survival time, dose: 8.0 mg/kg/injection, schedule: Q01DX009 (ip), vehicle: saline with Tween-80, higher T/C = longer survival) was 128 % of control, the T/C (T/C endpoint: median survival time, dose: 16.0 mg/kg/injection, schedule: Q01DX009 (ip), vehicle: saline with Tween-80, higher T/C = longer survival) was 134 % of control (2×) and the survivor count [1] was 8 of 10 on day 9 and 10 of 10 on day 9. For the same molecule, the survivor count [2] was 0 of 10 on day 9, the survivor count (T/C endpoint: median tumor weight (est.), dose: 32.0 mg/kg/injection, schedule: Q01DX009 (ip), vehicle: saline with Tween-80, higher T/C = larger tumour) was 0 of 10 on day 20 and the survivor count (T/C endpoint: median tumor weight (est.), dose: 64.0 mg/kg/injection, schedule: Q01DX009 (ip), vehicle: saline with Tween-80, higher T/C = larger tumour) was 0 of 10 on day 20.

With `COc1ccc2nc(C(=O)NC3COC(=O)C(C(C)(C)O)N(C)C(=O)CN(C)C(=O)CNC(=O)C4CCCNN4C(=O)C(NC(=O)c4nc5ccc(OC)cc5cc4O)COC(=O)C(C(C)(C)O)N(C)C(=O)CN(C)C(=O)CNC(=O)C4C(OC(C)=O)CC=NN4C3=O)c(O)cc2c1` (stereo not given) (I: {Quinaldoyl(3-OH,6-OMe)}-S[X2]G[Sar][ξNMeVal(3-OH)] / II: {Quinaldoyl(3-OH,6-OMe)}-S[X3]G[Sar][ξNMeVal(3-OH)]; ester I:1-II:C, I:C-II:1; configuration not given here) the survivor count (T/C endpoint: median survival time, dose: 80.0 micrograms/kg/injection, schedule: Q01DX009 (ip), vehicle: Klucel (hydroxypropylcellulose) (HPC), higher T/C = longer survival) was 0 of 10 on day 9, the survivor count (T/C endpoint: median tumor weight (est.), dose: 40.0 micrograms/kg/injection, schedule: Q01DX009 (ip), vehicle: DMSO, higher T/C = larger tumour) was 5 of 10 on day 20 and the survivor count (T/C endpoint: median tumor weight (est.), dose: 80.0 micrograms/kg/injection, schedule: Q01DX009 (ip), vehicle: DMSO, higher T/C = larger tumour) was 0 of 10 on day 20.

For `O=C1/C(=C/c2cccc([N+](=O)[O-])c2)SC(=S)N1C1CC1`, the T/C (T/C endpoint: median tumor weight (est.), dose: 200.0 mg/kg/injection, schedule: Q01DX009 (ip), vehicle: saline with Tween-80, evaluated on day 20, higher T/C = larger tumour) was 130 % of control.
